# Data reported in paper PMC11003700.
# Amino acid sequences for entries named in this document (tags omitted).
# UniProt P04198: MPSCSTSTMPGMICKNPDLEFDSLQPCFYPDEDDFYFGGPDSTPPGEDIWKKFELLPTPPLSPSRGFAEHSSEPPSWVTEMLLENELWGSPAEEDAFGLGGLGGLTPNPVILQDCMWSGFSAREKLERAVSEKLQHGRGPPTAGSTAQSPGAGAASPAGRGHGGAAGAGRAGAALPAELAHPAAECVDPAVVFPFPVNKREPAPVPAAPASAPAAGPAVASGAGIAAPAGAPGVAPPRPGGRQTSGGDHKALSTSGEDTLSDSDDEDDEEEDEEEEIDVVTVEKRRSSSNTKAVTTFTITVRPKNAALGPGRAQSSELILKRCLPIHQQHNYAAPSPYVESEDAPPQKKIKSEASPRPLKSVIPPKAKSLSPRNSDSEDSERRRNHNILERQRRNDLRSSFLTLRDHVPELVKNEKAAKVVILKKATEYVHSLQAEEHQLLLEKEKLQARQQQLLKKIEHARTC
# UniProt Q96KQ7: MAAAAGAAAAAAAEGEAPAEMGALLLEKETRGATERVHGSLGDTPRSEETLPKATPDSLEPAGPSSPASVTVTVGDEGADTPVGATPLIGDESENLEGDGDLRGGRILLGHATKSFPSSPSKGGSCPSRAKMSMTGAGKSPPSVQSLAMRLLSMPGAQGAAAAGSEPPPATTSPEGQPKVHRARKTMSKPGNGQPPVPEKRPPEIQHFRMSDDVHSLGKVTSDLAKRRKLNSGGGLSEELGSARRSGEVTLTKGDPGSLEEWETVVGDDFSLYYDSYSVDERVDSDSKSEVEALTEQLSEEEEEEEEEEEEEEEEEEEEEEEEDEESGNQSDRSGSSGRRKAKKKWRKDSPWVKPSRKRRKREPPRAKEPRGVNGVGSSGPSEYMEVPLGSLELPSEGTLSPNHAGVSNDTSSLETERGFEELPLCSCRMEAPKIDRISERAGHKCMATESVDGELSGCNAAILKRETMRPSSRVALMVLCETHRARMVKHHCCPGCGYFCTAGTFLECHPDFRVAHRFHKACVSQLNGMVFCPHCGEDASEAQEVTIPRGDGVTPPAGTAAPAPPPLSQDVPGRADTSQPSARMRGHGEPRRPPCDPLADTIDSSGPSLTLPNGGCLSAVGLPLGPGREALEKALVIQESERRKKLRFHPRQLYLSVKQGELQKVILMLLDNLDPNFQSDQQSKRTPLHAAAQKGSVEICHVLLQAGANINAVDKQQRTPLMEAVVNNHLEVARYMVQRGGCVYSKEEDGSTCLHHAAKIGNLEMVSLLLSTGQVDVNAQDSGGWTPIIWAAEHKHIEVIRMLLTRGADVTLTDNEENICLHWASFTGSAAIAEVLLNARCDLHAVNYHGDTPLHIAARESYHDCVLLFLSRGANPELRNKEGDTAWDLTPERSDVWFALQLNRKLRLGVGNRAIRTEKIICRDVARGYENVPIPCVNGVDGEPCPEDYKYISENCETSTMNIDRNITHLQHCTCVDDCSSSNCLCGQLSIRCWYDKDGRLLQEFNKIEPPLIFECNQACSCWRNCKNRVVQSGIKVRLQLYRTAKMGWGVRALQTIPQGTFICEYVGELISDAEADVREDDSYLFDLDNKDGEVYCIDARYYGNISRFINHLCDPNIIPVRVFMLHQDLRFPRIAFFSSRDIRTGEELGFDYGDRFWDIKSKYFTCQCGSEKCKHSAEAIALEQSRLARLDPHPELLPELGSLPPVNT
# These are yes or no findings as the source states them, for the method shown. Binding seen in cells or lysates may run through a third protein. Some entries that bind do so weakly or less than the wild type.
# Biological target: MYCN (N-Myc) (human (endogenous in IMR32)) (UniProt P04198)
# Experiment: co-IP; MYCN co-IP from IMR32 lysate, western blot with antibodies to MYCN, G9a and WDR5; Benzonase (500 U/ml) and Mg2+ (2 mM) added as indicated
substance,measurement,value
"G9a (histone methyltransferase, also known as EHMT2) (from UniProt Q96KQ7 1-1210) (enzyme)",binding,binds
